Measured values taken from US20200284781A1, “TEST METHOD OF COMBINED TOXICITY FOR CHLORPYRIFOS AND BUTACHLOR” (priority 2019, published 2020).

System: zebrafish larvae
Experiment: Single toxicity of chlorpyrifos and butachlor to zebrafish larvae
Type: in vivo
Experimental: H. Data processing: Calculating the LC50 value of pesticides on larvae and their 95% confidence limits by probit analysis based on the number and time of dead fish larvae, and using 95% confidence limit of LC50 as the criterion to determine whether the toxicity difference of different pesticides is significant, LC50≤0.1 mg a.i. L^−1, is hypertoxic; 0.1<LC50≤1.0 mg a.i. L^−1, is high toxicity; 1.0<LC50≤[…] a.i. L^−1, is medium toxicity; LC50>10.0 mg a.i. L^−1 is low toxicity. The maximum allowable concentration of MPC employs 100 as the protection factor, the formula is: MPC=96 h-LC50/100, to get the maximum allowable concentration of a poison.
H. Data processing: Calculating the LC50 value of pesticides on larvae and their 95% confidence limits by probit analysis based on the number and time of dead fish larvae, and using 95% confidence limit of LC50 as the criterion to determine whether the toxicity difference of different drugs is significant, LC50≤0.1 mg a.i. L^−1, is hypertoxic; 0.1<LC50≤1.0 mg a.i. L^−1, is high toxicity; 1.0<LC50≤10.0 mg a.i. L^−1, is medium toxicity; LC50>10.0 mg a.i. L^−1, is low toxicity, the maximum allowable concentration of MPC employs 100 as the protection factor, the formula is: MPC=96 h-LC50/100, to get the maximum allowable concentration of a poison.
Wherein the larvae in the migratory period in step E refer to fish 120 h after fertilization of eggs, for improving the accuracy of the test.

| SMILES | Slope (exposure time 24 h) | Slope (exposure time 48 h) | Slope (exposure time 72 h) | Slope (exposure time 96 h) |
| --- | --- | --- | --- | --- |
| CCCCOCN(C(=O)CCl)c1c(CC)cccc1CC [Butachlor, butachlor] | 3.73 | 3.96 | 3.88 | 4.76 |
| CCOP(=S)(OCC)Oc1nc(Cl)c(Cl)cc1Cl [Chlorpyrifos, chlorpyrifos] | 3.73 | 5.39 | 5.38 | 4.43 |
